Results from WO2005107784A1 (dated 2005).
No constants are given. Whether binding was seen depends on the method and setting. Some entries that bind do so weakly or less than the wild type. Sequences can lack the tags named with a protein.

T1: MG10-GST fusion protein (human Mpl Gln213 to Ala231) (human)
T1 sequence: QPTMPWQDGPKQTSPSREA


What was measured:
[1] = molecular target: T1, MG10-GST fusion protein (human Mpl Gln213 to Ala231) (human); test: affinity column with immobilised MG10-GST, eluted at pH 3.5
[2] = molecular target: T1, MG10-GST fusion protein (human Mpl Gln213 to Ala231) (human); test: binding to GST fusion protein (western blotting)

Row | Binder | binding [1] | binding [2]
1 | hVB22B p-z sc(Fv)2 (scFv) scFv: QVQLVQSGPEVKKPGASVKVSCKASGYTFTNSWMNWVRQRPGKGLEWMGRIYPGDGETIYNGKFRVRVTITADESTSTAYMELSSLRSEDTAVYYCARGYDDYSFAYWGQGTTVTVSSGGGGSGGGGSGGGGSDIVMTQSALSLPVTPGEPASISCRSSKSLLHSNGNTYLYWFQQKPGQSPQLLIYRMSNLASGVPDRFSGSGSGTAFTLKISRVEAEDVGVYYCMQHIEYPFTFGQGTKLEIKGGGGSGGGGSGGGGSQVQLVQSGPEVKKPGASVKVSCKASGYTFTNSWMNWVRQRPGKGLEWMGRIYPGDGETIYNGKFRVRVTITADESTSTAYMELSSLRSEDTAVYYCARGYDDYSFAYWGQGTTVTVSSGGGGSGGGGSGGGGSDIVMTQSALSLPVTPGEPASISCRSSKSLLHSNGNTYLYWFQQKPGQSPQLLIYRMSNLASGVPDRFSGSGSGTAFTLKISRVEAEDVGVYYCMQHIEYPFTFGQGTKLEIK | binds | 
2 | hVB22B g-e sc(Fv)2 (scFv) scFv: QVQLVQSGPEVKKPGASVKVSCKASGYTFTNSWMNWVRQRPGKGLEWVGRIYPGDGETIYNGKFRVRVTITADESTSTAYMELSSLRSEDTAVYYCARGYDDYSFAYWGQGTTVTVSSGGGGSGGGGSGGGGSDIVMTQSALSLPVTPGEPASISCRSSKSLLHSNGNTYLYWYLQKPGQSPQLLIYRMSNLASGVPDRFSGSGSGTAFTLKISRVEAEDVGVYYCMQHIEYPFTFGQGTKLEIKGGGGSGGGGSGGGGSQVQLVQSGPEVKKPGASVKVSCKASGYTFTNSWMNWVRQRPGKGLEWVGRIYPGDGETIYNGKFRVRVTITADESTSTAYMELSSLRSEDTAVYYCARGYDDYSFAYWGQGTTVTVSSGGGGSGGGGSGGGGSDIVMTQSALSLPVTPGEPASISCRSSKSLLHSNGNTYLYWYLQKPGQSPQLLIYRMSNLASGVPDRFSGSGSGTAFTLKISRVEAEDVGVYYCMQHIEYPFTFGQGTKLEIK | binds | 
3 | hVB22B e sc(Fv)2 (scFv) scFv: QVQLVQSGPEVKKPGASVKVSCKASGYTFTNSWMNWIRQRPGKGLEWIGRIYPGDGETIYNGKFRVRVTITADESTSTAYMELSSLRSEDTAVYYCARGYDDYSFAYWGQGTLVTVSSGGGGSGGGGSGGGGSDIVMTQSALSLPVTPGEPASISCRSSKSLLHSNGNTYLYWYLQKPGQSPQLLIYRMSNLASGVPDRFSGSGSGTAFTLKISRVEAEDVGVYYCMQHIEYPFTFGQGTKLEIKGGGGSGGGGSGGGGSQVQLVQSGPEVKKPGASVKVSCKASGYTFTNSWMNWIRQRPGKGLEWIGRIYPGDGETIYNGKFRVRVTITADESTSTAYMELSSLRSEDTAVYYCARGYDDYSFAYWGQGTLVTVSSGGGGSGGGGSGGGGSDIVMTQSALSLPVTPGEPASISCRSSKSLLHSNGNTYLYWYLQKPGQSPQLLIYRMSNLASGVPDRFSGSGSGTAFTLKISRVEAEDVGVYYCMQHIEYPFTFGQGTKLEIK | binds | 
4 | anti-human Mpl antibody VB22B IgG (antibody, V domains shown) VH: QVQLQQSGPELVKPGASVKISCKASGYAFTNSWMNWVKQRPGKGLEWIGRIYPGDGETIYNGKFRVKATLTADKSSSTAYMDISSLTSEDSAVYFCARGYDDYSFAYWGQGTLVTVSA VL: DIVMTQAAPSIPVTPGESVSISCRSSKSLLHSNGNTYLYWFLQRPGQSPQLLIYRMSNLASGVPDRFSGSGSGTAFTLRISRVEAEDVGVYYCMQHIEYPFTFGSGTKLEIK |  | binds

The remaining lines, values ahead:

Row | binding [1] | binding [2] | Binder
5 | binds |  | hVB22B u2-wz4 sc(Fv)2 (scFv) scFv: QVQLVQSGPEVKKPGASVKVSCKASGYTFTNSWMNWVRQRPGKGLEWIGRIYPGDGETIYNGKFRVRVTITADESTSTAYMQLSSLRSEDTAVYYCARGYDDYSFAYWGQGTTVTVSSGGGGSGGGGSGGGGSDIVMTQSPLSLPVTPGEPASISCRSSKSLLHSNGNTYLYWFLQKPGQSPQLLIYRMSNLASGVPDRFSGSGSGTDFTLKISRVEAEDVGVYYCMQHIEYPFTFGQGTKLEIKGGGGSGGGGSGGGGSQVQLVQSGPEVKKPGASVKVSCKASGYTFTNSWMNWVRQRPGKGLEWIGRIYPGDGETIYNGKFRVRVTITADESTSTAYMQLSSLRSEDTAVYYCARGYDDYSFAYWGQGTTVTVSSGGGGSGGGGSGGGGSDIVMTQSPLSLPVTPGEPASISCRSSKSLLHSNGNTYLYWFLQKPGQSPQLLIYRMSNLASGVPDRFSGSGSGTDFTLKISRVEAEDVGVYYCMQHIEYPFTFGQGTKLEIK
6 | binds |  | hVB22B q-wz5 sc(Fv)2 (scFv) scFv: QVQLVQSGPEVKKPGASVKVSCKASGYTFTNSWMNWVRQRPGKGLEWIGRIYPGDGETIYNGKFRVRVTITADESTSTAYMELSSLRSEDTAVYYCARGYDDYSFAYWGQGTTVTVSSGGGGSGGGGSGGGGSDIVMTQSPLSLPVTPGEPASISCRSSKSLLHSNGNTYLYWFQQKPGQAPRLLIYRMSNLASGVPDRFSGSGSGTAFTLKISRVEAEDVGVYYCMQHIEYPFTFGQGTKLEIKGGGGSGGGGSGGGGSQVQLVQSGPEVKKPGASVKVSCKASGYTFTNSWMNWVRQRPGKGLEWIGRIYPGDGETIYNGKFRVRVTITADESTSTAYMELSSLRSEDTAVYYCARGYDDYSFAYWGQGTTVTVSSGGGGSGGGGSGGGGSDIVMTQSPLSLPVTPGEPASISCRSSKSLLHSNGNTYLYWFQQKPGQAPRLLIYRMSNLASGVPDRFSGSGSGTAFTLKISRVEAEDVGVYYCMQHIEYPFTFGQGTKLEIK
